Counter-ions that a name gives are not always drawn. ± gives the standard deviation of the averaged measurements. The list shows a part of the results. These are raw signals, not scaled to a control.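 HeLa cells imaged for ribosome-assembly readouts (ENP1 staining with or without export block, or inducible tagged ribosomal protein reporters); machine learning classified each cell's signal location against solvent (DMSO) controls. Hits exceeded the DMSO false-positive mean by five standard deviations, then were visually confirmed; three biological replicates.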
Experiments:
[1] = tested on: HeLa K (ENP1 immunofluorescence, +LMB); assay: fraction of cells with nucleolar or nucleolar/nucleoplasmic ENP1 signal (MainHitrate); higher = more cells with nucleolar/nuclear readout signal (for ENP1 -LMB: less RNAPI inhibition; for +LMB ENP1 and RP reporters: stronger nuclear/nucleolar retention, i.e. ribosome biogenesis defect); conditions: concentration: 1 µM; treatment time: 6 h; ENP1 +LMB; leptomycin B: 20 nM, last 1.5 h
[2] = tested on: HeLa K (ENP1 immunofluorescence, no LMB); assay: as above; conditions: concentration: 1 µM; treatment time: 6 h; ENP1 -LMB; leptomycin B: none
HeLa RPS2-YFP reporter = assay: fraction of reporter-positive cells with nuclear (nucleolar or nucleolar/nucleoplasmic) RPS2-YFP (MainHitrate); higher = more cells with nucleolar/nuclear readout signal (for ENP1 -LMB: less RNAPI inhibition; for +LMB ENP1 and RP reporters: stronger nuclear/nucleolar retention, i.e. ribosome biogenesis defect); conditions: concentration: 1 µM; treatment time: 6 h
HeLa RPL29-GFP reporter = assay: fraction of reporter-positive cells with nuclear (nucleolar or nucleolar/nucleoplasmic) RPL29-GFP (MainHitrate); higher = more cells with nucleolar/nuclear readout signal (for ENP1 -LMB: less RNAPI inhibition; for +LMB ENP1 and RP reporters: stronger nuclear/nucleolar retention, i.e. ribosome biogenesis defect); conditions: concentration: 1 µM; treatment time: 6 h

CN(CCOc1ccc(CC2SC(=O)NC2=O)cc1)c1ccccn1 (stereo not drawn) [Rosiglitazone (Avandia)]
fraction [1]: 0.125 ± 0.18 | fraction [2]: 0.9976 ± 0.0041 | fraction of reporter-positive cells with nuclear (HeLa RPS2-YFP reporter): 0.0513 ± 0.033 | fraction of reporter-positive cells with nuclear (HeLa RPL29-GFP reporter): 0.231 ± 0.083

Cc1[nH]c(=O)c(C#N)cc1-c1ccncc1 [Milrinone (Primacor)]
fraction [1]: 0.0796 ± 0.1 | fraction [2]: 0.991 ± 0.016 | fraction of reporter-positive cells with nuclear (HeLa RPS2-YFP reporter): 0.117 ± 0.12 | fraction of reporter-positive cells with nuclear (HeLa RPL29-GFP reporter): 0.239 ± 0.084

O=c1ccc2ccccc2o1 [Coumarin]
fraction [1]: 0.0609 ± 0.075 | fraction [2]: 0.969 ± 0.053 | fraction of reporter-positive cells with nuclear (HeLa RPS2-YFP reporter): 0.101 ± 0.076 | fraction of reporter-positive cells with nuclear (HeLa RPL29-GFP reporter): 0.221 ± 0.047

C#Cc1cccc(Nc2ncnc3cc(OCCOC)c(OCCO)cc23)c1 [OSI-420 (Desmethyl Erlotinib)]
fraction [1]: 0.146 ± 0.21 | fraction [2]: 0.992 ± 0.014 | fraction of reporter-positive cells with nuclear (HeLa RPS2-YFP reporter): 0.119 ± 0.084 | fraction of reporter-positive cells with nuclear (HeLa RPL29-GFP reporter): 0.25 ± 0.068

OC[C@H]1OC(O)[C@H](O)[C@@H](O)[C@@H]1O (stereo partly drawn) [Dextrose (D-glucose)]
fraction [1]: 0.137 ± 0.19 | fraction [2]: 0.991 ± 0.015 | fraction of reporter-positive cells with nuclear (HeLa RPS2-YFP reporter): 0.0978 ± 0.091 | fraction of reporter-positive cells with nuclear (HeLa RPL29-GFP reporter): 0.205 ± 0.11

Cn1c([N+](=O)[O-])cnc1COC(N)=O [Ronidazole]
fraction [1]: 0.0904 ± 0.12 | fraction [2]: 0.972 ± 0.048 | fraction of reporter-positive cells with nuclear (HeLa RPS2-YFP reporter): 0.124 ± 0.11 | fraction of reporter-positive cells with nuclear (HeLa RPL29-GFP reporter): 0.231 ± 0.064

NCCS [Cysteamine HCl]
fraction [1]: 0.0575 ± 0.061 | fraction [2]: 0.991 ± 0.016 | fraction of reporter-positive cells with nuclear (HeLa RPS2-YFP reporter): 0.141 ± 0.089 | fraction of reporter-positive cells with nuclear (HeLa RPL29-GFP reporter): 0.22 ± 0.047

Nc1cccc2c1C(=O)N(C1CCC(=O)NC1=O)C2=O (stereo not drawn) [Pomalidomide]
fraction [1]: 0.076 ± 0.052 | fraction [2]: 0.998 ± 0.0034 | fraction of reporter-positive cells with nuclear (HeLa RPS2-YFP reporter): 0.116 ± 0.086 | fraction of reporter-positive cells with nuclear (HeLa RPL29-GFP reporter): 0.206 ± 0.045

CCCCOc1ccc(OCCCN2CCOCC2)cc1 [Pramoxine HCl]
fraction [1]: 0.089 ± 0.12 | fraction [2]: 0.984 ± 0.027 | fraction of reporter-positive cells with nuclear (HeLa RPS2-YFP reporter): 0.127 ± 0.11 | fraction of reporter-positive cells with nuclear (HeLa RPL29-GFP reporter): 0.203 ± 0.065

CCN1CCC[C@H]1CNC(=O)c1cc(S(N)(=O)=O)ccc1OC [Levosulpiride (Levogastrol)]
fraction [1]: 0.066 ± 0.079 | fraction [2]: 0.988 ± 0.021 | fraction of reporter-positive cells with nuclear (HeLa RPS2-YFP reporter): 0.0935 ± 0.076 | fraction of reporter-positive cells with nuclear (HeLa RPL29-GFP reporter): 0.23 ± 0.077

CC(=O)Oc1cc(C(F)(F)F)ccc1C(=O)O [Triflusal]
fraction [1]: 0.0673 ± 0.094 | fraction [2]: 0.979 ± 0.036 | fraction of reporter-positive cells with nuclear (HeLa RPS2-YFP reporter): 0.098 ± 0.083 | fraction of reporter-positive cells with nuclear (HeLa RPL29-GFP reporter): 0.212 ± 0.06

NS(=O)(=O)c1cc(C(=O)O)c(NCc2ccco2)cc1Cl [Furosemide (Lasix)]
fraction [1]: 0.0796 ± 0.08 | fraction [2]: 0.9944 ± 0.0097 | fraction of reporter-positive cells with nuclear (HeLa RPS2-YFP reporter): 0.0855 ± 0.06 | fraction of reporter-positive cells with nuclear (HeLa RPL29-GFP reporter): 0.212 ± 0.047

Nc1[nH]cnc2ncnc1-2 [Adenine hydrochloride]
fraction [1]: 0.1 ± 0.14 | fraction [2]: 0.994 ± 0.011 | fraction of reporter-positive cells with nuclear (HeLa RPS2-YFP reporter): 0.0963 ± 0.069 | fraction of reporter-positive cells with nuclear (HeLa RPL29-GFP reporter): 0.237 ± 0.087

COc1cc(C(=O)NC2CCCNC2)cc(OC)c1OC (stereo not drawn) [Troxipide]
fraction [1]: 0.112 ± 0.16 | fraction [2]: 0.993 ± 0.012 | fraction of reporter-positive cells with nuclear (HeLa RPS2-YFP reporter): 0.145 ± 0.1 | fraction of reporter-positive cells with nuclear (HeLa RPL29-GFP reporter): 0.276 ± 0.09

CN1CCCCC1CCN1c2ccccc2Sc2ccc([S+](C)[O-])cc21 (stereo not drawn) [Mesoridazine Besylate]
fraction [1]: 0.0893 ± 0.12 | fraction [2]: 0.9945 ± 0.0095 | fraction of reporter-positive cells with nuclear (HeLa RPS2-YFP reporter): 0.177 ± 0.14 | fraction of reporter-positive cells with nuclear (HeLa RPL29-GFP reporter): 0.292 ± 0.17

CCCCCCCCCCC[C@@H](C[C@@H]1OC(=O)[C@H]1CCCCCC)OC(=O)[C@H](CC(C)C)NC=O [Orlistat (Alli, Xenical)]
fraction [1]: 0.0952 ± 0.12 | fraction [2]: 0.9981 ± 0.0033 | fraction of reporter-positive cells with nuclear (HeLa RPS2-YFP reporter): 0.109 ± 0.067 | fraction of reporter-positive cells with nuclear (HeLa RPL29-GFP reporter): 0.211 ± 0.074

N[C@@H](Cc1cc(I)c(Oc2ccc(O)c(I)c2)c(I)c1)C(=O)O [Liothyronine Sodium]
fraction [1]: 0.124 ± 0.14 | fraction [2]: 0.985 ± 0.026 | fraction of reporter-positive cells with nuclear (HeLa RPS2-YFP reporter): 0.128 ± 0.098 | fraction of reporter-positive cells with nuclear (HeLa RPL29-GFP reporter): 0.204 ± 0.08

CCOC(=O)[C@H](CCc1ccccc1)N[C@H]1CCCN2CCC[C@@H](C(=O)O)N2C1=O [Cilazapril monohydrate (Inhibace)]
fraction [1]: 0.0835 ± 0.12 | fraction [2]: 0.9957 ± 0.0074 | fraction of reporter-positive cells with nuclear (HeLa RPS2-YFP reporter): 0.0882 ± 0.077 | fraction of reporter-positive cells with nuclear (HeLa RPL29-GFP reporter): 0.209 ± 0.056

CCN(CC)CCNC(=O)c1c(C)[nH]c(/C=C2\C(=O)Nc3ccc(F)cc32)c1C [Sunitinib Malate (Sutent)]
fraction [1]: 0.106 ± 0.081 | fraction [2]: 0.9984 ± 0.0027 | fraction of reporter-positive cells with nuclear (HeLa RPS2-YFP reporter): 0.0872 ± 0.031 | fraction of reporter-positive cells with nuclear (HeLa RPL29-GFP reporter): 0.224 ± 0.053

Nc1nccs1 [Aminothiazole]
fraction [1]: 0.106 ± 0.15 | fraction [2]: 0.989 ± 0.018 | fraction of reporter-positive cells with nuclear (HeLa RPS2-YFP reporter): 0.137 ± 0.11 | fraction of reporter-positive cells with nuclear (HeLa RPL29-GFP reporter): 0.212 ± 0.088

N=C(N)NC(=O)c1nc(Cl)c(N)nc1N [Amiloride hydrochloride dihydrate]
fraction [1]: 0.117 ± 0.18 | fraction [2]: 0.994 ± 0.011 | fraction of reporter-positive cells with nuclear (HeLa RPS2-YFP reporter): 0.125 ± 0.1 | fraction of reporter-positive cells with nuclear (HeLa RPL29-GFP reporter): 0.223 ± 0.12

C=CC[N+]1([C@H]2C[C@H]3[C@@H]4CC[C@H]5C[C@H](O)[C@@H](N6CCOCC6)C[C@]5(C)[C@H]4CC[C@]3(C)[C@H]2OC(C)=O)CCCC1 [Rocuronium bromide]
fraction [1]: 0.133 ± 0.15 | fraction [2]: 0.997 ± 0.0052 | fraction of reporter-positive cells with nuclear (HeLa RPS2-YFP reporter): 0.119 ± 0.065 | fraction of reporter-positive cells with nuclear (HeLa RPL29-GFP reporter): 0.213 ± 0.075

CC(S)C(=O)NCC(=O)O (stereo not drawn) [Tiopronin (Thiola)]
fraction [1]: 0.0941 ± 0.14 | fraction [2]: 0.992 ± 0.013 | fraction of reporter-positive cells with nuclear (HeLa RPS2-YFP reporter): 0.113 ± 0.076 | fraction of reporter-positive cells with nuclear (HeLa RPL29-GFP reporter): 0.221 ± 0.084

Clc1ccc(C(Cn2ccnc2)OCc2ccc(Sc3ccccc3)cc2)c(Cl)c1 (stereo not drawn) [Fenticonazole nitrate]
fraction [1]: 0.139 ± 0.2 | fraction [2]: 0.991 ± 0.016 | fraction of reporter-positive cells with nuclear (HeLa RPS2-YFP reporter): 0.14 ± 0.1 | fraction of reporter-positive cells with nuclear (HeLa RPL29-GFP reporter): 0.223 ± 0.052

COCCOC(=O)C1=C(C)NC(C)=C(C(=O)OC(C)C)C1c1cccc([N+](=O)[O-])c1 (stereo not drawn) [Nimodipine (Nimotop)]
fraction [1]: 0.0987 ± 0.097 | fraction [2]: 0.9978 ± 0.0038 | fraction of reporter-positive cells with nuclear (HeLa RPS2-YFP reporter): 0.124 ± 0.098 | fraction of reporter-positive cells with nuclear (HeLa RPL29-GFP reporter): 0.22 ± 0.098

Clc1ccc(COC(Cn2ccnc2)c2ccc(Cl)cc2Cl)c(Cl)c1 (stereo not drawn) [Miconazole (Monistat)]
fraction [1]: 0.151 ± 0.23 | fraction [2]: 0.984 ± 0.027 | fraction of reporter-positive cells with nuclear (HeLa RPS2-YFP reporter): 0.103 ± 0.069 | fraction of reporter-positive cells with nuclear (HeLa RPL29-GFP reporter): 0.223 ± 0.068

CCOC(=O)C1=C[C@]2(CC)CCCN3CCc4c(n1c1ccccc41)[C@@H]32 [Vinpocetine (Cavinton)]
fraction [1]: 0.0774 ± 0.083 | fraction [2]: 0.992 ± 0.013 | fraction of reporter-positive cells with nuclear (HeLa RPS2-YFP reporter): 0.114 ± 0.074 | fraction of reporter-positive cells with nuclear (HeLa RPL29-GFP reporter): 0.237 ± 0.076

— the supplement of paper PMC12542422
